Assay results from paper PMC10896983.
Numbering of substitutions follows the chain as printed. These are yes or no findings as the source states them, for the method shown. In cells and extracts the contact can be indirect. Some binding calls cover weakened binding; strength is not graded here. Tags and fused reporters may be left off the sequences shown.

What was measured:
Assay in all cases: co-IP; HEK293 stably expressing HA-tagged iRhom2 variants as bait; cleared lysate on anti-HA magnetic beads for 90 min, five washes with lysis buffer (50 mM Tris, 2 mM CaCl2, 137 mM NaCl, 2 mM EDTA, 10 mM 1,10-phenanthroline, pH 7.5); endogenous prey by immunoblot and densitometry; in some panels cells treated with NH4Cl or bafilomycin for 8 h or 16 h
[1] = target: T1, human iRhom2 with the TOC mutation I186T (HA tag) (human) (UniProt Q6PJF5)
T1 sequence: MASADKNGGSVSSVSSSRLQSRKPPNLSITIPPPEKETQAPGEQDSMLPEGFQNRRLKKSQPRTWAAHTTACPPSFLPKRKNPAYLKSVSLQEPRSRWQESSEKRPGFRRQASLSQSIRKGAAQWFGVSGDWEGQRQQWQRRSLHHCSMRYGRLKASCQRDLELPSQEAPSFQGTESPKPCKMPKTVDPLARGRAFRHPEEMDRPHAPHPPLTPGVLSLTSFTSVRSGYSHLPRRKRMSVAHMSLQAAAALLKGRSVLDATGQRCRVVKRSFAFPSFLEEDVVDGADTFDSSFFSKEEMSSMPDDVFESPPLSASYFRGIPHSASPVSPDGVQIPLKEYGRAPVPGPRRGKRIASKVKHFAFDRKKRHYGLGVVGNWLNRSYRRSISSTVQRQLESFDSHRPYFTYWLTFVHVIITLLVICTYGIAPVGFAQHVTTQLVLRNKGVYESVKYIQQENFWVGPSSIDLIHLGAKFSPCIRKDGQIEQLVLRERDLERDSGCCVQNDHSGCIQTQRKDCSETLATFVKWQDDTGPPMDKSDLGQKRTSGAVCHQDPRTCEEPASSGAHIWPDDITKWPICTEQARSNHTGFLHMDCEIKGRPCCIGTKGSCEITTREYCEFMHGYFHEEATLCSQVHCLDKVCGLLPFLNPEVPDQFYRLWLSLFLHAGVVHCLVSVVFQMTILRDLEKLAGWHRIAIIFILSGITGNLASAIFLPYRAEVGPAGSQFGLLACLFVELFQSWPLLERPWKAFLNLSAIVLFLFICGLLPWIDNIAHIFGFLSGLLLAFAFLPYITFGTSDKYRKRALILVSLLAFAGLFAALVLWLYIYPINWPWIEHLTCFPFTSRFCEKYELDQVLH

[2] = target: T2, human iRhom2 with deletion of the TOC site, ndTOC (Δ182-192) (HA tag) (human) (UniProt Q6PJF5)
T2 sequence: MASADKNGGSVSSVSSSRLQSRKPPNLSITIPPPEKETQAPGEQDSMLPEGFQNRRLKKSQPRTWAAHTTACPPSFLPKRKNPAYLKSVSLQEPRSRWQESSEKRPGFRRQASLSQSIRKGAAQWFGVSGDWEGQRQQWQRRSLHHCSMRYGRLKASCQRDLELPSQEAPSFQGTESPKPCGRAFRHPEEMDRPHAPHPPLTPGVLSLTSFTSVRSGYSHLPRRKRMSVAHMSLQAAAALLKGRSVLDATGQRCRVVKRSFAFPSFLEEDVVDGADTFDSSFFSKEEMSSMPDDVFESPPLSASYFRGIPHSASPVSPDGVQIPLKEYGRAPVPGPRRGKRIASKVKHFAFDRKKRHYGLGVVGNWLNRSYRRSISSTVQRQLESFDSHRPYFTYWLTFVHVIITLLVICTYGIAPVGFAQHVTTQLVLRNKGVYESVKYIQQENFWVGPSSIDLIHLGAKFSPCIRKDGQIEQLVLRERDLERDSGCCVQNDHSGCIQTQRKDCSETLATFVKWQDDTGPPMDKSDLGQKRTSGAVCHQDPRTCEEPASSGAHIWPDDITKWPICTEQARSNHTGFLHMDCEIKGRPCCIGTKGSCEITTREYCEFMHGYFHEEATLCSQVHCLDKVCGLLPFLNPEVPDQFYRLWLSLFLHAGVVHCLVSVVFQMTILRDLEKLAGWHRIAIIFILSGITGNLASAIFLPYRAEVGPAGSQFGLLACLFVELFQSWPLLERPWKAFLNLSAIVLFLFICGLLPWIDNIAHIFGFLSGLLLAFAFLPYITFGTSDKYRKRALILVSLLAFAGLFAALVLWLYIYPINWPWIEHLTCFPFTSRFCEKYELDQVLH

[3] = target: T3, human wt-iRhom2 (HA tag) (human) (UniProt Q6PJF5)
T3 sequence: T1 sequence with T186I

Measured: binding

B1: FRMD8 (endogenous, HEK293) (protein, UniProt Q9BZ67 1-464)
chain: MDGTEGSAGQPGPAERSHRSSVSSVGARAADVLVYLADDTVVPLAVENLPSLSAHELHRAVREVLQLPDIALDVFALWLVSPLLEVQLKPKHQPYKLGRQWPELLLRFTSAPDDDVAMDEPFLQFRRNVFFPKRRELQIHDEEVLRLLYEEAKGNVLAARYPCDVEDCEALGALVCRVQLGPYQPGRPAACDLREKLDSFLPAHLCKRGQSLFAALRGRGARAGPGEQGLLNAYRQVQEVSSDGGCEAALGTHYRAYLLKCHELPFYGCAFFHGEVDKPAQGFLHRGGRKPVSVAISLEGVHVIDSREKHVLLGLRFQELSWDHTSPEEEEPILWLEFDGDSEGTPVNKLLKIYSKQAELMSSLIEYCIELSQAAEPAGPQDSATGSPSDPSSSLAPVQRPKLRRQGSVVSSRIQHLSTIDYVEDGKGIRRVKPKRTTSFFSRQLSLGQGSYTVVQPGDSLEQG
binds: all assays above
